Data on 27 molecules can be found in PubChem BioAssay AID192 (DTP/NCI, 2004).

For the experiment, the system named is BDF1 mice, B16 melanoma ip, median survival T/C. Briefly: NCI In Vivo Anticancer Drug Screen. Data for tumor model B16 Melanoma (intraperitoneal) in B6D2F1 (BDF1) mice. The note with it: T/C endpoint: median survival time, higher T/C = longer survival. Put shortly: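 Vehicle-treated animals serve as the reference (C); treated animals (T) are scored for survival or tumor size after tumor transplantation.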

The mark [1] stands for this setting: dose: 100.0 mg/kg/injection, schedule: Q01DX009 (ip), vehicle: saline.
Setting [2] is: dose: 400.0 mg/kg/injection, schedule: Q01DX009 (ip), vehicle: saline.
Where [3] appears, read: dose: 400.0 mg/kg/injection, schedule: Q01DX009 (ip), vehicle: saline with Tween-80.
Where [4] appears, read: dose: 100.0 mg/kg/injection, schedule: Q01DX009 (ip), vehicle: Klucel (hydroxypropylcellulose) (HPC).
The mark [5] stands for this setting: dose: 200.0 mg/kg/injection, schedule: Q01DX009 (ip), vehicle: Klucel (hydroxypropylcellulose) (HPC).
The mark [6] stands for this setting: dose: 400.0 mg/kg/injection, schedule: Q01DX009 (ip), vehicle: Klucel (hydroxypropylcellulose) (HPC).
The mark [7] stands for this setting: dose: 50.0 mg/kg/injection, schedule: Q01DX009 (ip), vehicle: water.
Where [8] appears, read: dose: 100.0 mg/kg/injection, schedule: Q01DX009 (ip), vehicle: water.
Where [9] appears, read: dose: 200.0 mg/kg/injection, schedule: Q01DX009 (ip), vehicle: saline with Tween-80.
[10] abbreviates: dose: 37.5 mg/kg/injection, schedule: Q01DX009 (ip), vehicle: other.

The list shows only some results of the screen, not a fair sample: it gathers tests that were run many times, whatever their T/C, doses with no T/C, and many T/C values between a quarter and a half above the control. Further doses and runs are listed elsewhere. T/C: endpoint of the treated group in % of that of the vehicle group. Some doses have a count of surviving animals in place of a T/C: the source holds a T/C of zero for them, seemingly a mark for toxic or unscored doses. Some survivor counts are full or nearly so, which does not show that the dose was tolerated: the source hardly ever lists a survival T/C far under the control, and the zero likely stands for such cases as well. Counts of survivors are from the toxicity check (mostly the fifth day) where no day follows; animals may have died later. Schedules are NCI's codes, read here as Q, the interval in days (D) or hours (H), X, the number of doses. Some entries hold several experiments; their values stand side by side, smallest first. Where survival is the endpoint, this PubChem deposit counts one and a half times the control or more as active, and values a quarter to a half above the control carry no call in these data; other NCI protocols may use other cut-offs. Some T/C values carry the count of animals alive at the toxicity check (mostly the fifth day); where none is given, no animal had died by that day.

For `Cc1ccc([NH-])c([NH-])c1.[Cl][Pt+2][Cl]`, where the note is “dose: 2.5 mg/kg/injection, schedule: Q01DX009 (ip), vehicle: saline with Tween-80”, the T/C was 135 % of control. For the same molecule, the survivor count by setting is: (dose: 10.0 mg/kg/injection, schedule: Q01DX009 (ip), vehicle: saline with Tween-80) 10 of 10; (dose: 20.0 mg/kg/injection, schedule: Q01DX009 (ip), vehicle: saline with Tween-80) 8 of 10.
As for `CNC(=O)Oc1coc(CCl)cc1=O`, under “dose: 60.0 mg/kg/injection, schedule: Q01DX009 (ip), vehicle: Klucel (hydroxypropylcellulose) (HPC)”, the survivor count was 1 of 6.
With `N=C(N)SCCCN`, the T/C under setting [1] is 137 % of control. The survivor count is, setting by setting: under setting [2], 0 of 10; (dose: 400.0 mg/kg/injection, schedule: Q04DX003 (ip), vehicle: saline) 1 of 10.
Regarding `COc1ccc(NC2=C(C)C(=O)C3=C(C2=O)[C@H](COC(N)=O)[C@]2(OC)[C@@H]4N[C@@H]4CN32)cc1OC`, the survivor count (dose: 12.0 mg/kg/injection, schedule: Q04DX003 (ip), vehicle: water) is listed as 10 of 10 and the survivor count (dose: 24.0 mg/kg/injection, schedule: Q04DX003 (ip), vehicle: water) is recorded as 10 of 10.
On to `NC(=O)c1ccc(N)nc1`, for which, for the setting “dose: 0.75 mg/kg/injection, schedule: Q01DX009 (ip), vehicle: saline”, the T/C was 135 % of control. Also, the survivor count by setting is: (dose: 3.0 mg/kg/injection, schedule: Q01DX009 (ip), vehicle: saline) 9 of 10; (dose: 4.0 mg/kg/injection, schedule: Q01DX009 (ip), vehicle: saline) 10 of 10; (dose: 6.0 mg/kg/injection, schedule: Q01DX009 (ip), vehicle: saline) 9 of 10; (dose: 8.0 mg/kg/injection, schedule: Q01DX009 (ip), vehicle: saline) 10 of 10; (dose: 12.0 mg/kg/injection, schedule: Q01DX009 (ip), vehicle: saline) 4 of 10; (dose: 12.5 mg/kg/injection, schedule: Q04DX003 (ip), vehicle: saline) 10 of 10. Further, the survivor count (dose: 25.0 mg/kg/injection, schedule: Q04DX003 (ip), vehicle: saline) is recorded as 10 of 10.
For `O=C1c2ccccc2C(=O)c2c(NCCN3CCNCC3)ccc(NCCN3CCNCC3)c21`, the survivor count (dose: 128.0 mg/kg/injection, schedule: Q01DX009 (ip), vehicle: acid diluted with saline) is reported as 0 of 10.
As to `Cc1ccc2cc3c(ccc4ccccc43)c3c2c1CC3`, the T/C was 126 % of control under setting [1]; 126 % of control (dose: 200.0 mg/kg/injection, schedule: Q01DX009 (ip), vehicle: saline); 129 % of control under setting [3]; 130 % of control under setting [2].
Take `COc1ccc(NC(=O)Nc2ccc(C)c(C)c2)cc1`: the survivor count under setting [4] is recorded as 10 of 10, the survivor count under setting [5] was 10 of 10 and the survivor count under setting [6] is reported as 10 of 10.
In the case of `CCOC(=O)/N=[N+](\[O-])c1ccccc1`, the survivor count (dose: 50.0 mg/kg/injection, schedule: Q01DX009 (ip), vehicle: saline with Tween-80) was 3 of 10.
Consider `NC(CNC(=O)CBr)C(=O)O` (stereo not given), for which the survivor count by setting is: under setting [7], 8 of 10; under setting [8], 0 of 10.
Take `Cc1ccccc1NC(=S)N(C)C`: the survivor count was 10 of 10 (dose: 50.0 mg/kg/injection, schedule: Q04DX003 (ip), vehicle: Klucel (hydroxypropylcellulose) (HPC)) and 10 of 10 (dose: 100.0 mg/kg/injection, schedule: Q04DX003 (ip), vehicle: Klucel (hydroxypropylcellulose) (HPC)).
For the molecule `O=c1oc(-c2cccc([N+](=O)[O-])c2)nc2ccccc12`, the survivor count under setting [5] is listed as 0 of 10.
As for `C[N+](C)(C)c1ncnc2nc[nH]c12`, the survivor count under setting [2] is given as 0 of 10.
For `O=C(O)O.O=C(O)O.O=C(O)O.[Co]`, the survivor count (dose: 100.0 mg/kg/injection, schedule: Q04DX003 (ip), vehicle: saline with Tween-80) is recorded as 7 of 10.
Consider `O=C(Nc1ccc(F)cc1)Nc1ccc(Cl)cc1`, for which the survivor count under setting [3] is on record as 9 of 10.
With `O=C1C=C(C2CCCCC2)C(=O)c2ccccc21`, the survivor count under setting [9] is on record as 10 of 10 and the survivor count under setting [3] is 10 of 10.
Consider `CNC(C)C1(O)Cc2c(O)c3c(c(O)c2C(OC2CC(N)C(O)C(C)O2)C1)C(=O)c1c(OC)cccc1C3=O` (stereo not given), for which, under “dose: 2.0 mg/kg/injection, schedule: Q01DX009 (ip), vehicle: water”, the T/C was 140 % of control.
Consider `Cn1c(N)c(N=Nc2ccccc2Cl)c(=O)n(C)c1=O`, for which the survivor count is 10 of 10 (dose: 100.0 mg/kg/injection, schedule: Q01DX009 (ip), vehicle: saline with Tween-80) and 10 of 10 under setting [9].
As to `Cn1cnc([N+](=O)[O-])c1[Se]c1nc(N)nc2nc[nH]c12`, the T/C was 135 % of control (dose: 6.25 mg/kg/injection, schedule: Q01DX009 (ip), vehicle: water); 133 % of control (dose: 11.0 mg/kg/injection, schedule: Q01DX009 (ip), vehicle: other); 139 % of control (dose: 12.5 mg/kg/injection, schedule: Q01DX009 (ip), vehicle: water); 137 % of control (dose: 16.5 mg/kg/injection, schedule: Q01DX009 (ip), vehicle: other); 135 and 142 % of control (dose: 25.0 mg/kg/injection, schedule: Q01DX009 (ip), vehicle: other); 143 % of control [9 of 10 alive] under setting [10]. For the same molecule, the survivor count reads like this: under setting [10], 8 of 10; under setting [7], 4 of 10 and 8 of 10; under setting [8], 0 of 10 and 2 of 10.
In the case of `CCCCN(CCCC)CC(O)c1ccnc2cc3c(cc12)OCO3` (stereo not given), the survivor count is listed as 0 of 10 (dose: 200.0 mg/kg/injection, schedule: Q04DX003 (ip), vehicle: Klucel (hydroxypropylcellulose) (HPC)) and 0 of 10 (dose: 400.0 mg/kg/injection, schedule: Q04DX003 (ip), vehicle: Klucel (hydroxypropylcellulose) (HPC)).
As for `C=CCN(C)N=Nc1ccc(C(N)=O)cc1`, the survivor count under setting [5] is given as 10 of 10.
On to `Brc1ccc(C[N+]23CN4CN(CN(C4)C2)C3)cc1`, for which the survivor count under setting [6] is 0 of 10.
In the case of `FC(F)(F)c1ccc2c(c1)N(CCCN1CCN(CCC3OCCCO3)CC1)c1ccccc1S2`, the survivor count reads like this: (dose: 0.78 mg/kg/injection, schedule: Q01DX009 (ip), vehicle: saline) 10 of 10; (dose: 1.56 mg/kg/injection, schedule: Q01DX009 (ip), vehicle: saline) 10 of 10; (dose: 6.25 mg/kg/injection, schedule: Q01DX009 (ip), vehicle: saline) 10 of 10; (dose: 12.5 mg/kg/injection, schedule: Q01DX009 (ip), vehicle: saline) 8 of 10 and 10 of 10. Also, the T/C (dose: 3.12 mg/kg/injection, schedule: Q01DX009 (ip), vehicle: saline) is 132 % of control.
`CCCCCC(O)C1C(=O)OC(C)C(O)/C=C/C=C/C=C/C=C\C=C(\C)C(O)CC(O)CC(O)CC(O)CC(O)CC(O)CC1O` (stereo not given): the survivor count (dose: 20.0 mg/kg/injection, schedule: Q01DX009 (ip), vehicle: saline) is 10 of 10.
Turning to `CCCC(=O)OCc1cc(=O)n(C)c2c3c4c(cc12)c(C)cc(=O)n4CO3`, the T/C runs as follows: (dose: 12.5 mg/kg/injection, schedule: Q01DX009 (ip), vehicle: Klucel (hydroxypropylcellulose) (HPC)) 127 % of control; (dose: 25.0 mg/kg/injection, schedule: Q01DX009 (ip), vehicle: Klucel (hydroxypropylcellulose) (HPC)) 129 and 141 % of control; (dose: 50.0 mg/kg/injection, schedule: Q01DX009 (ip), vehicle: Klucel (hydroxypropylcellulose) (HPC)) 143 % of control; under setting [4], 136 % of control. Besides, under setting [4], the survivor count is 10 of 10.
As to `CC(C)N1CSC(=S)N(Cc2ccccc2)C1`, under setting [6], the survivor count was 10 of 10.
For the molecule `NC(CCC(=O)NC(CS)C(=O)NCC(=O)O)C(=O)O` (stereo not given), the T/C (dose: 25.0 mg/kg/injection, schedule: Q01DX009 (ip), vehicle: saline) was 126 % of control.
